One assay concerns the target T1, hMC3 (Homo sapiens, UniProt P41968).
T1 construct: expressed in transfected cells; host or cells: mouse L cells
In words: Displacement of ^125I-HP 467 in transfected mouse L cells expressing hMC3. The format is binding.

Amino acid sequences for entries named in this document (tags omitted). A change or cut given only in a name is not applied to a line headed by its entry.
UniProt P41968: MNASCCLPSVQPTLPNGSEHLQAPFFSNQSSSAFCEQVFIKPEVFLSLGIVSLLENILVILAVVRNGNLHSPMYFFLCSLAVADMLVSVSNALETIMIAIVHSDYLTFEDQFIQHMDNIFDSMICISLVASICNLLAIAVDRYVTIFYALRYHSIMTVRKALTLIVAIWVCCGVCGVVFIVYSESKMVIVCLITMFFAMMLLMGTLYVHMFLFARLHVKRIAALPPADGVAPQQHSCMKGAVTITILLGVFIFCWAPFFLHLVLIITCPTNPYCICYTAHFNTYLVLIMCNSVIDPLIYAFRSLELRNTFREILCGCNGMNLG
UniProt P32245, whole entry: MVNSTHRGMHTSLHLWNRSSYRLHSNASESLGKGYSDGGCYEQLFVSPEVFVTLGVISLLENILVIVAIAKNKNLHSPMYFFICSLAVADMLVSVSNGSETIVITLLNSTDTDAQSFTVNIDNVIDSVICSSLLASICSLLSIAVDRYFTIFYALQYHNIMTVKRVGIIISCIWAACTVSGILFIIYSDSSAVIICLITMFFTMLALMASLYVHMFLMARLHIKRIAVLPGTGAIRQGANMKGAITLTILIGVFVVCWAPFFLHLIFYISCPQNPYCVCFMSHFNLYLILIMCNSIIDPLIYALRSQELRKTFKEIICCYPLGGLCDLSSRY

A further assay addresses T2, hMC4 (Homo sapiens, UniProt P32245).
T2 construct: expressed in transfected cells; host or cells: mouse L cells
Put plainly: Displacement of ^125I-HP 467 in transfected mouse L cells expressing hMC4. Type of assay: binding.

pIC50: −log10 of the molar value.

One may read the pIC50 as −log10 of the IC50, conventionally taken in molar units. Low values mean a large IC50, high ones a small IC50.

For `CCCC[C@H](NC(C)=O)C(=O)N[C@@H](CCC(N)=O)C(=O)N[C@@H](Cc1c[nH]cn1)C(=O)N[C@H](Cc1ccccc1)C(=O)N[C@@H](CCCNC(=N)N)C(=O)N[C@H](Cc1c[nH]c2ccccc12)C(=O)NCC(N)=O` [HP 228, Ac-(Nle)QHfRwG-NH2, reference compound], the pIC50 at hMC3 is 7.53; at hMC4, 8.12.
